The list shows a part of the results.
Tests used:
Assay in all cases: glycan array binding signal (z-score within array); higher = stronger binding
Details in all cases: glycan notation: IUPAC condensed, linker removed
[1] = target: Fuc(a1-2)[GalNAc(a1-3)]Gal(b1-3)GlcNAc(b1-6)GalNAc
Procedure, shortened: (§1)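 Columns mapping to the same glycan were averaged after glycan names were converted to IUPAC-condensed notation. The data come from 3228 arrays in the Consortium for Functional Glycomics database, limited to those with an available protein sequence. Binding is reported as a within-array Z-score averaged across arrays of one protein sequence and across linkers.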

[2] = target: Fuc(a1-2)[GalNAc(a1-3)]Gal(b1-4)Glc
Procedure, shortened: as §1

[3] = target: Fuc(a1-2)[GalNAc(a1-3)]Gal(b1-4)GlcNAc
Procedure, shortened: as §1

[4] = target: Fuc(a1-2)[GalNAc(a1-3)]Gal(b1-4)GlcNAc(b1-2)Man
Procedure, shortened: as §1

[5] = target: Fuc(a1-2)[GalNAc(a1-3)]Gal(b1-4)GlcNAc(b1-2)Man(a1-3)[Fuc(a1-2)[GalNAc(a1-3)]Gal(b1-4)GlcNAc(b1-2)Man(a1-6)]Man(b1-4)GlcNAc(b1-4)GlcNAc
Procedure, shortened: as §1

[6] = target: Fuc(a1-2)[GalNAc(a1-3)]Gal(b1-4)GlcNAc(b1-2)Man(a1-3)[Fuc(a1-2)[GalNAc(a1-3)]Gal(b1-4)GlcNAc(b1-2)Man(a1-6)]Man(b1-4)GlcNAc(b1-4)[Fuc(a1-6)]GlcNAc
Procedure, shortened: as §1

[7] = target: Fuc(a1-2)[GalNAc(a1-3)]Gal(b1-4)GlcNAc(b1-3)Gal(b1-4)GlcNAc
Procedure, shortened: as §1

[8] = target: Fuc(a1-2)[GalNAc(a1-3)]Gal(b1-4)GlcNAc(b1-3)Gal(b1-4)GlcNAc(b1-3)Gal(b1-4)GlcNAc
Procedure, shortened: as §1

[9] = target: Fuc(a1-2)[GalNAc(a1-3)]Gal(b1-4)GlcNAc(b1-3)GalNAc
Procedure, shortened: as §1

[10] = target: Fuc(a1-2)[GalNAc(a1-3)]Gal(b1-4)GlcNAc(b1-3)[Fuc(a1-2)[GalNAc(a1-3)]Gal(b1-4)GlcNAc(b1-6)]GalNAc
Procedure, shortened: as §1

[11] = target: Fuc(a1-2)[GalNAc(a1-3)]Gal(b1-4)GlcNAc(b1-6)GalNAc
Procedure, shortened: as §1

[12] = target: Fuc(a1-2)[GalNAc(a1-3)]Gal(b1-4)[Fuc(a1-3)]GlcNAc
Procedure, shortened: as §1

[13] = target: Fuc(a1-2)[GalNAc(a1-3)]Gal(b1-4)[Fuc(a1-3)]GlcNAc(b1-3)GalNAc
Procedure, shortened: as §1

[14] = target: Fuc(a1-2)[GalNAc(a1-4)]Gal(b1-4)GlcNAc
Procedure, shortened: as §1

[15] = target: Fuc(a1-2)[GalNAc(b1-3)]Gal
Procedure, shortened: as §1

Fuc(a1-3)GlcNAc = target: Fuc(a1-3)GlcNAc
Procedure, shortened: as §1

[16] = target: Fuc(a1-3)[Gal(b1-4)]Glc6S
Procedure, shortened: as §1

[17] = target: Fuc(a1-3)[Gal(b1-4)]GlcNAc
Procedure, shortened: as §1

[18] = target: Fuc(a1-3)[Gal(b1-4)]GlcNAc(b1-2)Man
Procedure, shortened: as §1

[19] = target: Fuc(a1-3)[Gal(b1-4)]GlcNAc(b1-2)Man(a1-3)[Fuc(a1-3)[Gal(b1-4)]GlcNAc(b1-2)Man(a1-6)]Man(b1-4)GlcNAc(b1-4)GlcNAc
Procedure, shortened: as §1

[20] = target: Fuc(a1-3)[Gal(b1-4)]GlcNAc(b1-2)Man(a1-3)[Fuc(a1-3)[Gal(b1-4)]GlcNAc(b1-2)Man(a1-6)]Man(b1-4)GlcNAc(b1-4)[Fuc(a1-6)]GlcNAc
Procedure, shortened: as §1

[21] = target: Fuc(a1-3)[Gal(b1-4)]GlcNAc(b1-3)Gal(b1-3)[Fuc(a1-4)]GlcNAc
Procedure, shortened: as §1

[22] = target: Fuc(a1-3)[Gal(b1-4)]GlcNAc(b1-3)Gal(b1-4)[Fuc(a1-3)]GlcNAc
Procedure, shortened: as §1

[23] = target: Fuc(a1-3)[Gal(b1-4)]GlcNAc(b1-3)Gal(b1-4)[Fuc(a1-3)]GlcNAc(b1-3)Gal(b1-4)[Fuc(a1-3)]GlcNAc
Procedure, shortened: as §1

[24] = target: Fuc(a1-3)[Gal(b1-4)]GlcNAc(b1-3)GalNAc
Procedure, shortened: as §1

[25] = target: Fuc(a1-3)[Gal(b1-4)]GlcNAc(b1-6)GalNAc
Procedure, shortened: as §1

[26] = target: Fuc(a1-3)[Gal(b1-4)]GlcNAc(b1-6)[Gal(b1-3)GlcNAc(b1-3)]Gal(b1-4)Glc
Procedure, shortened: as §1

[27] = target: Fuc(a1-3)[Gal(b1-4)]GlcNAc6S
Procedure, shortened: as §1

[28] = target: Fuc(a1-3)[Gal3S(b1-4)]Glc
Procedure, shortened: as §1

[29] = target: Fuc(a1-3)[Gal3S(b1-4)]GlcNAc
Procedure, shortened: as §1

[30] = target: Fuc(a1-3)[Gal3S(b1-4)]GlcNAc6S
Procedure, shortened: as §1

[31] = target: Fuc(a1-3)[GalNAc(b1-4)]GlcNAc
Procedure, shortened: as §1

[32] = target: Fuc(a1-3)[GalNAc(b1-4)]GlcNAc6S
Procedure, shortened: as §1

Fuc(a1-4)GlcNAc = target: Fuc(a1-4)GlcNAc
Procedure, shortened: as §1

Fuc(b1-3)GlcNAc = target: Fuc(b1-3)GlcNAc
Procedure, shortened: as §1

Gal(a1-2)Gal = target: Gal(a1-2)Gal
Procedure, shortened: as §1

Gal(a1-3)Gal = target: Gal(a1-3)Gal
Procedure, shortened: as §1

Gal(a1-3)Gal(b1-3)GlcNAc = target: Gal(a1-3)Gal(b1-3)GlcNAc
Procedure, shortened: as §1

[33] = target: Gal(a1-3)Gal(b1-3)GlcNAc(b1-2)Man
Procedure, shortened: as §1

[34] = target: Gal(a1-3)Gal(b1-3)GlcNAc(b1-2)Man(a1-3)[Gal(a1-3)Gal(b1-3)GlcNAc(b1-2)Man(a1-6)]Man(b1-4)GlcNAc(b1-4)GlcNAc
Procedure, shortened: as §1

[35] = target: Gal(a1-3)Gal(b1-3)GlcNAc(b1-3)GalNAc
Procedure, shortened: as §1

[36] = target: Gal(a1-3)Gal(b1-3)GlcNAc(b1-6)GalNAc
Procedure, shortened: as §1

[37] = target: Gal(a1-3)Gal(b1-3)[Fuc(a1-4)]GlcNAc(b1-2)Man(a1-3)[Gal(a1-3)Gal(b1-3)[Fuc(a1-4)]GlcNAc(b1-2)Man(a1-6)]Man(b1-4)GlcNAc(b1-4)GlcNAc
Procedure, shortened: as §1

Gal(a1-3)Gal(b1-4)Glc = target: Gal(a1-3)Gal(b1-4)Glc
Procedure, shortened: as §1

Gal(a1-3)Gal(b1-4)GlcNAc = target: Gal(a1-3)Gal(b1-4)GlcNAc
Procedure, shortened: as §1

B1: PX14375A-pdi-503-28-503 (Parabacteroides distasonis) (protein)
chain: PLGSPEAGDISEERQAFLRLTAVYSVMKDFRYTWSMQCFGDVLSNDATYSGSSNDAQTFTLLENYQYQADHTEILNKYRYSYQCINKANLFIRDMEMADDALFSKYDKEQMIGEAKFIRAYTYFELVKTFGGVPCYTGVLDLDHERLGRASVEEIYSVIEQDLNDAVSVLPKKSEVANYESSYAGRITKGAAIAMQTRIYLYEKKYDEVKKAFEKFQNECGGEYSLVAPEDYTWQFSLDGEHCSSSILEVNMYNSSTQSSYNVNNGNRHVLMSMPRNMTIGFGCAQPTQALADAYDAEGDVIRKKTTLLSTEEAIEIETAAKGDVAPVTDDRTGWYNRKLYLAPGQREENRGNNQPTNLRLIRLAEVYLNYAEACYFSGDIANAQKYLNEVRSHVNLAPKNHTGSQLFEDIMNERHLEFGMEGFRFFDVVRVGWGEKVFNGTKKAEFGAKTPFSAGAEVLPIPQTEIDISDGLITN
glycan array binding signal (z-score) [1]: -0.687 | glycan array binding signal (z-score) [2]: -0.085 | glycan array binding signal (z-score) [3]: 0.161 | glycan array binding signal (z-score) [4]: -0.235 | glycan array binding signal (z-score) [5]: 0.123 | glycan array binding signal (z-score) [6]: 0.098 | glycan array binding signal (z-score) [7]: 0.005 | glycan array binding signal (z-score) [8]: 0.191 | glycan array binding signal (z-score) [9]: -0.359 | glycan array binding signal (z-score) [10]: -0.429 | glycan array binding signal (z-score) [11]: -1.03 | glycan array binding signal (z-score) [12]: -0.827 | glycan array binding signal (z-score) [13]: -0.614 | glycan array binding signal (z-score) [14]: -0.304 | glycan array binding signal (z-score) [15]: -0.705 | glycan array binding signal (z-score) (Fuc(a1-3)GlcNAc): -0.753 | glycan array binding signal (z-score) [16]: 0.278 | glycan array binding signal (z-score) [17]: -0.242 | glycan array binding signal (z-score) [18]: 0.074 | glycan array binding signal (z-score) [19]: 0.397 | glycan array binding signal (z-score) [20]: -0.548 | glycan array binding signal (z-score) [21]: -0.721 | glycan array binding signal (z-score) [22]: -0.516 | glycan array binding signal (z-score) [23]: -0.089 | glycan array binding signal (z-score) [24]: 1.12 | glycan array binding signal (z-score) [25]: -0.205 | glycan array binding signal (z-score) [26]: -0.522 | glycan array binding signal (z-score) [27]: 0.08 | glycan array binding signal (z-score) [28]: -0.451 | glycan array binding signal (z-score) [29]: -0.883 | glycan array binding signal (z-score) [30]: -0.103 | glycan array binding signal (z-score) [31]: 0.871 | glycan array binding signal (z-score) [32]: 0.949 | glycan array binding signal (z-score) (Fuc(a1-4)GlcNAc): 0.69 | glycan array binding signal (z-score) (Fuc(b1-3)GlcNAc): 1.35 | glycan array binding signal (z-score) (Gal(a1-2)Gal): 0.188 | glycan array binding signal (z-score) (Gal(a1-3)Gal): -0.33 | glycan array binding signal (z-score) (Gal(a1-3)Gal(b1-3)GlcNAc): -0.481 | glycan array binding signal (z-score) [33]: -0.5 | glycan array binding signal (z-score) [34]: 0.626 | glycan array binding signal (z-score) [35]: 0.497 | glycan array binding signal (z-score) [36]: -0.022 | glycan array binding signal (z-score) [37]: 0.223 | glycan array binding signal (z-score) (Gal(a1-3)Gal(b1-4)Glc): -0.124 | glycan array binding signal (z-score) (Gal(a1-3)Gal(b1-4)GlcNAc): -0.399

— the supplement of paper PMC8728848
